Patent US6066642A, “Dihydropyridine-, pyridine-, benzopyran-4-one- and triazoloquinazoline derivative, their preparation and their use as adenosine receptor antagonists” (priority 1998, dated 2000)
At least one compound was matched to its structure with a doubt left. Some compounds share one wording; it may come from a single statement.

Target: T1, A1 receptors (Rattus norvegicus, UniProt P25099)
T1 sequence (P25099 1-326): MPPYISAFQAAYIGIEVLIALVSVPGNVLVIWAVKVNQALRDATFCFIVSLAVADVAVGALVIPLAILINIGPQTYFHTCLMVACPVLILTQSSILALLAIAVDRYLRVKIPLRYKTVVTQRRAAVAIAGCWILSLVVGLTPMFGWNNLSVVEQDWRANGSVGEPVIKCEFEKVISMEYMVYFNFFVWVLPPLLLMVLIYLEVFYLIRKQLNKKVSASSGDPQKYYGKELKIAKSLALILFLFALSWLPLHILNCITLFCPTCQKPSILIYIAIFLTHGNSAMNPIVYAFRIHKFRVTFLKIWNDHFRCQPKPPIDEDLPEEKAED
Assay type: binding
Details: selectivity in words

SMILES: CCOC(=O)C1=C(C)NC(C)=C(C(=O)OC)C1/C=C/c1ccccc1 (racemic) [Compound 75, 3-methyl-5-ethyl-2,6-dimethyl-4-[2-phenyl-(trans)-vinyl]-1,4(R,S)-dihydropyridine-3,5-dicarboxylate]
- greater affinity to A1 than A2a adenosine receptors: greater affinity to A1 adenosine receptors than A2a receptors
